Paper PMC5990496
Positions count from the first letter of the chain named. Results are given in words; binding and its absence hold for the method and conditions named. In cells and extracts the contact can be indirect. Some results given as binding are weak or reduced against the parent protein; the word gives no strength. Sequences can lack the tags named with a protein.

How the values were obtained:
Assay in all cases: co-IP; overexpressed, tagged versions of centrobin and CEP120, from cell extracts, at 4°C; which protein was precipitated is not told
[1] = biological target: T1, tagged CEP120 A199P (JATD mutation) (human) (UniProt Q8N960)
T1 sequence: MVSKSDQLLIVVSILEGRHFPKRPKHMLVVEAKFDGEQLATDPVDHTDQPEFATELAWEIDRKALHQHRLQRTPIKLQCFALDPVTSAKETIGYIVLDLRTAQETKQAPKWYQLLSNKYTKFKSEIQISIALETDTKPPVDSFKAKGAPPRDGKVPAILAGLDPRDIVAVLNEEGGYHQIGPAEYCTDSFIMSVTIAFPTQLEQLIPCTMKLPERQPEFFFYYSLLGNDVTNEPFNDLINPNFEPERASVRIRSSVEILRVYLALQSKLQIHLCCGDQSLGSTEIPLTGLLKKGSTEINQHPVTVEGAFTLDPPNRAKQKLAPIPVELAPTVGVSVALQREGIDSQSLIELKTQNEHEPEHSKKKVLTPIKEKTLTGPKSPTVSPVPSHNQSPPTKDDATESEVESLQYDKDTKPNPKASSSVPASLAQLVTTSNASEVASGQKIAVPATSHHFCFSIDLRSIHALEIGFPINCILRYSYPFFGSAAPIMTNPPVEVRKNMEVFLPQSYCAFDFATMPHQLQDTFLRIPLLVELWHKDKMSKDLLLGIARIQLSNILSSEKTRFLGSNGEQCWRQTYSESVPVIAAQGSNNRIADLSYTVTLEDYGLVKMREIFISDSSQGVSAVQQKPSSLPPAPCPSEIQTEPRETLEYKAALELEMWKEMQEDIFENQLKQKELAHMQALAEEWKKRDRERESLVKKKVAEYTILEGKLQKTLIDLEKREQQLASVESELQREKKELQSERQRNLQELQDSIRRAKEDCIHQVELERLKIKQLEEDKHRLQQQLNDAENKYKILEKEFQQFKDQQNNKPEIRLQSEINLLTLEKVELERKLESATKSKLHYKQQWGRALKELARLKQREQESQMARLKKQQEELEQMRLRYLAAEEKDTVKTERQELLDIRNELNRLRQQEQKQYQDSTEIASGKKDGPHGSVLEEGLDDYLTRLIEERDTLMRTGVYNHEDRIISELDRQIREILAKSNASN

[2] = biological target: T2, tagged CEP120 V194A (JS mutation) (human) (UniProt Q8N960)
T2 sequence: T1 sequence with V194A, P199A

[3] = biological target: T3, tagged CEP120 (overexpressed, for co-immunoprecipitation) (human) (UniProt Q8N960)
T3 sequence: T1 sequence with P199A

Measured: binding

B1: tagged centrobin (overexpressed, for co-immunoprecipitation) (protein, UniProt Q8N137 1-903)
chain: MATSADSPSSPLGAEDLLSDSSEPPGLNQVSSEVTSQLYASLRLSRQAEATARAQLYLPSTSPPHEGLDGFAQELSRSLSVGLEKNLKKKDGSKHIFEMESVRGQLQTMLQTSRDTAYRDPLIPGAGSERREEDSFDSDSTATLLNTRPLQDLSPSSSAQALEELFPRYTSLRPGPPLNPPDFQGLRDALDSEHTRRKHCERHIQSLQTRVLELQQQLAVAVAADRKKDTMIEQLDKTLARVVEGWNRHEAERTEVLRGLQEEHQAAELTRSKQQETVTRLEQSLSEAMEALNREQESARLQQRERETLEEERQALTLRLEAEQQRCCVLQEERDAARAGQLSEHRELETLRAALEEERQTWAQQEHQLKEHYQALQEESQAQLEREKEKSQREAQAAWETQHQLALVQSEVRRLEGELDTARRERDALQLEMSLVQARYESQRIQLESELAVQLEQRVTERLAQAQESSLRQAASLREHHRKQLQDLSGQHQQELASQLAQFKVEMAEREERQQQVAEDYELRLAREQARVCELQSGNQQLEEQRVELVERLQAMLQAHWDEANQLLSTTLPPPNPPAPPAGPSSPGPQEPEKEERRVWTMPPMAVALKPVLQQSREARDELPGAPPVLCSSSSDLSLLLGPSFQSQHSFQPLEPKPDLTSSTAGAFSALGAFHPDHRAERPFPEEDPGPDGEGLLKQGLPPAQLEGLKNFLHQLLETVPQNNENPSVDLLPPKSGPLTVPSWEEAPQVPRIPPPVHKTKVPLAMASSLFRVPEPPSSHSQGSGPSSGSPERGGDGLTFPRQLMEVSQLLRLYQARGWGALPAEDLLLYLKRLEHSGTDGRGDNVPRRNTDSRLGEIPRKEIPSQAVPRRLATAPKTEKPPARKKSGHPAPSSMRSRGGVWR
binds: all assays above
